# Literature values as cited in patent US8940494B2, “Microfluidic assay in idealized microvascular network for characterization of leukocyte adhesion cascade” (CFD Research Corporation, priority 2009, dated 2015).
# At least one compound was matched to its structure with a doubt left.
# Tested on: leukocytes
# Conditions: background statement; no data from the patent's own device
structure (smiles),measurement,value
COC[C@H]1OC(=O)c2coc3c2[C@@]1(C)C1=C(C3=O)[C@@H]2CCC(=O)[C@@]2(C)C[C@H]1OC(C)=O [Wortmannin],effect on fMLP dependent migration,inhibit fMLP dependent migration
